Laboratory results reported in PubChem BioAssay AID504834 (National Center for Advancing Translational Sciences (NCATS), 2011).
Hit rate of the full screen: of about 320,000 compounds, about 22,000 (6.9%) were called active. Inconclusive results, whose numbers are uncertain, are shown with a selection of clear calls. The call rests on the fitted dose curve; in most records, active means well fitted inhibition curve with a large enough effect; inconclusive means small, poorly fitted or top-dose-only effect, or another doubt; inactive means no such curve, though single readings can be large or run the other way. Potencies of inconclusive entries are doubtful fits and often do not repeat.

Experiment: Primary qHTS for delayed death inhibitors of the malarial parasite plastid, 96 hour incubation
Conditions: P. falciparum luciferase reporter growth; series mostly up to 28.7 µM; activity change, negative = inhibition: at the top concentration
In short: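 Infected RBCs, 2% Hct / 0.05% parasitemia final; luciferase-reporter P. falciparum; cpd 96 h, 37 C, 5% CO2; luciferase detection reagent; luminescence.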
On the % scale 0 is the no-effect control and ±100 the full control effect; potency means the concentration at half of the fitted maximal effect.

| Structure (SMILES) | Potency | activity change, negative = inhibition |
| --- | --- | --- |
| CC(=O)Nc1ccc(NC(=O)C(C)Sc2nc3ccccc3c(=O)n2Cc2ccco2)cc1 (stereo not given) | inconclusive: 18.5 µM [inhibitor, single point] |  |
| O=C(Nc1cc(S(=O)(=O)N2CCOCC2)ccc1Cl)c1cc2ccccc2o1 | inconclusive: 13.1 µM [inhibitor, partial curve, poor fit] |  |
| O=C(CSc1nc(-c2ccccc2)nc2ccccc12)Nc1nccs1 | inconclusive: 0.0657 µM [inhibitor, full curve, poor fit] |  |
| COc1ccc(C(=O)Sc2nncc3ccccc23)cc1 |  | inactive: 33.9% |
| Cn1c(=O)c2c(nc(CN3CCN(Cc4ccccc4)CC3)n2Cc2cccc(Cl)c2)n(C)c1=O | active: 1.17 µM |  |
| COC(=O)c1cc(OC)c(OC)cc1NC(=O)CCNC(=O)c1ccco1 |  | inactive: -19.9% |
| CN(c1ccc(OCC(=O)N2CCN(C/C=C/c3ccccc3)CC2)cc1)S(=O)(=O)c1cccs1 | inconclusive: 16.5 µM [inhibitor, single point] |  |
| Cc1cc(-c2ccccc2)nc(N2CCN(c3ccccn3)CC2)n1 | inconclusive: 18.5 µM [inhibitor, single point] |  |
| CCCn1c(SCC(=O)N2CCN(C(C)=O)CC2)nc2sc3c(c2c1=O)CCC3 | active: 13.1 µM |  |
| O=C(N/N=C/c1ccsc1)C1CC1 |  | inactive: 4.76% |
| O=C(NCCN1CCCC1)c1ccc(Br)cc1 |  | inactive: -36.8% |
| CN1CN=C(NS(=O)(=O)c2ccc([N+](=O)[O-])cc2)NC1 | inconclusive: 9.28 µM [inhibitor, partial curve, poor fit] |  |
| Cc1ccc(OCc2csc(N)n2)cc1 |  | inactive: 176% |
| Cc1cccc2nc(-c3ccccc3)nc(N[C@@H](CO)c3ccccc3)c12 | active: 13.1 µM |  |
| O=C(CCc1nc(-c2ccc(Cl)cc2)no1)NC1CCCCC1 |  | inactive: 0.118% |
| CC(C)Cc1nc(SCC(=O)NCC2CCCO2)c2c(=O)n(C)c(=O)n(C)c2n1 (stereo not given) |  | inactive: 19.6% |
| CC1CCC(NC(=O)c2ccc(S(C)(=O)=O)cc2)CC1 (stereo not given) | inconclusive: 18.5 µM [inhibitor, single point] |  |
| Cc1ccc(NC(=O)CS(=O)CC(=O)N(C2CCCC2)C(C)C(=O)NC2CCCCC2)cc1 (stereo not given) | inconclusive: 18.5 µM [inhibitor, single point] |  |
| O=C(Nc1cc(F)ccc1F)C1CCN(S(=O)(=O)c2cccc3nonc23)CC1 | inconclusive: 0.828 µM [inhibitor, full curve, poor fit] |  |
| CCCCn1c(N)c(N(CC(C)C)C(=O)c2ccc(S(=O)(=O)N(CC)c3ccccc3)cc2)c(=O)[nH]c1=O | inconclusive: 11.7 µM [inhibitor, single point] |  |

An excerpt of these results, in CSV form.
Structure (SMILES),Potency,"activity change, negative = inhibition"
O=C(N/N=C/c1ccsc1)C1CC1,,inactive: 4.76%
O=C(NCCN1CCCC1)c1ccc(Br)cc1,,inactive: -36.8%
